Reference: PubChem BioAssay AID743121 (NCATS, 2013)

Purpose: 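Genes whose silencing strengthens cell killing by camptothecin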 (primary screen)
Cells: MDA-MB-231 cells, a human breast cancer line
Knock-down reagent: single siRNA against human genes, 20 nM siRNA (0.8 pmol per well)
Time to read-out: 120 h (drug added 48 h after transfection, read 72 h later)
Challenge: camptothecin 20 nM (about EC30) for 72 h; vehicle 0.1% DMSO in parallel plates
Read-out: 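Cell viability by ATP luminescence (CellTiter-Glo) as % of non-targeting siRNA wells, and the log2 ratio of viability without drug over viability with camptothecin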
Scale: log2 vehicle/camptothecin viability: higher = stronger sensitisation to camptothecin; viability with camptothecin and viability without drug: higher = more viable cells
Active means: 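Each gene scored by redundant siRNA activity (RSA) over its individual siRNA ratios; a gene is called active at p < 0.001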
Here is a random part of about 26,000 reagents tested. Over the whole deposit, 167 (0.63%) were called active. 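Calls are per gene from RSA p-values that are not deposited; an individual active-marked siRNA can sensitise only weakly.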 Unmarked entries are inactive. Reagents against one gene are numbered here.

target gene,reagent no.,log2 vehicle/camptothecin viability,viability with camptothecin (% of control),viability without drug (% of control)
FKBP4,1,0.19,69.9,79.8
FKBP4,2,-0.401,87,65.9
FKBP4,3,-0.11,76.3,70.7
FKBP4,4,-0.383,67.6,51.8
SERPINB8,1,-0.0586,83,79.7
SERPINB8,2,-0.75,17.5,10.4
SERPINB8,3,-0.113,92.3,85.4
SERPINB8,4,0.199,70.7,81.1
IL19,1,-0.671,59.4,37.3
IL19,2,-0.0403,38.8,37.8
IL19,3,-0.0625,63.6,60.9
IL19,4,0.486,43,60.2
SLC25A5,1,0.397,62.3,82.1
SLC25A5,2,-0.197,64.3,56.1
SLC25A5,3,-0.0913,62.5,58.7
LANCL1,1,-0.449,68.2,50
LANCL1,2,0.285,41,49.9
LANCL1,3,-0.233,75,63.8
LANCL1,4,-0.473,57.8,41.6
PNKP,1,-0.309,103,83.2
PNKP,2,-0.0415,100,97.1
PNKP,3,-0.167,40.7,36.2
PNKP,4,-0.312,55.9,45
SCN10A,1,-0.399,95.4,72.4
SCN10A,2,0.293,68.5,84
SCN10A,3,0.92,34.4,65.1
SCN10A,4,-0.32,117,94.1
CAMK2B,1,-0.434,73.1,54.2
CAMK2B,2,-0.8,57.9,33.3
CAMK2B,3,-0.146,15.7,14.2
CAMK2B,4,-0.201,97.8,85.1
DIO3,1,0.144,67.9,75.1
DIO3,2,-0.139,21,19
DIO3,3,0.124,69.8,76
DIO3,4,0.0834,89.6,94.9
IFNGR2,1,0.0702,32.6,34.2
IFNGR2,2,-0.245,60.2,50.8
IFNGR2,3,0.356,51.1,65.4
IFNGR2,4,0.329,49.4,62.1
USP9X,1,-0.173,70.1,62.2
USP9X,2,0.245,95.2,113
USP9X,3,-0.332,59.9,47.6
USP9X,4,-0.109,129,120
KCTD20,1,-0.0382,65.8,64.1
KCTD20,2,-0.477,40.8,29.3
KCTD20,3,0.328,66.1,83
KCTD20,4,0.00518,44.6,44.7

8 entries from above, reformatted.
{"target gene": "SLC25A5", "reagent no.": 1, "log2 vehicle/camptothecin viability": 0.397, "viability with camptothecin (% of control)": 62.3, "viability without drug (% of control)": 82.1}
{"target gene": "SLC25A5", "reagent no.": 2, "log2 vehicle/camptothecin viability": -0.197, "viability with camptothecin (% of control)": 64.3, "viability without drug (% of control)": 56.1}
{"target gene": "SLC25A5", "reagent no.": 3, "log2 vehicle/camptothecin viability": -0.0913, "viability with camptothecin (% of control)": 62.5, "viability without drug (% of control)": 58.7}
{"target gene": "LANCL1", "reagent no.": 1, "log2 vehicle/camptothecin viability": -0.449, "viability with camptothecin (% of control)": 68.2, "viability without drug (% of control)": 50}
{"target gene": "LANCL1", "reagent no.": 2, "log2 vehicle/camptothecin viability": 0.285, "viability with camptothecin (% of control)": 41, "viability without drug (% of control)": 49.9}
{"target gene": "LANCL1", "reagent no.": 3, "log2 vehicle/camptothecin viability": -0.233, "viability with camptothecin (% of control)": 75, "viability without drug (% of control)": 63.8}
{"target gene": "LANCL1", "reagent no.": 4, "log2 vehicle/camptothecin viability": -0.473, "viability with camptothecin (% of control)": 57.8, "viability without drug (% of control)": 41.6}
{"target gene": "PNKP", "reagent no.": 1, "log2 vehicle/camptothecin viability": -0.309, "viability with camptothecin (% of control)": 103, "viability without drug (% of control)": 83.2}
